Measurements: patent US7592341B2, “Peptide-enhanced corneal drug delivery” (Kansas State University Research Foundation, priority 2004, dated 2009)
Where two headings read alike, the source gives them in different places. Part of at least one peptide drawing is inferred or uncertain, most often the ends. No end group written: not given here.

Columns and labels:
[1] = system: corneal epithelium; type: in vivo, rabbit
Experimental: A series of in vivo corneal epithelial permeability experiments in unanaesthetized rabbits was also conducted. NC-1059 (Seq. ID No. 1) was prepared in BSS (200 μM) and placed inside the lower eyelid of one eye with the other eye receiving an equal amount of BSS alone. The solutions were held in place for 3 minutes and then washed with BSS. After the indicated incubation periods, both eyes received 300 μM NaF or CF and the dye was kept in place for 3 or 5 minutes. After the contact period the eyes were washed with 40 mL of BSS solution. Total uptake was measured for both the control and treated eyes with an OcuMetrics, Ocular Fluorophotometer. The fold changes between the peptide treated and untreated eyes were calculated (FIG. 7). […] It would also appear that adding the dye immediately after peptide exposure results in the highest permeation. […] The reduced uptake at the 6-hour time point documents the transient effects of the peptide in vivo. This transient effect has been observed under all assay conditions: in vitro, in situ and in vivo. In the final column, the fold increase is only 1.7±1.1 (n=2). Viewed alone, this fold increase is some-what misleading because the net amount of more hydrophobic NaF taken up in eyes is higher (7.8-fold) than with the CF dye.

[2] = system: SV40-immortalized human corneal epithelial (THCE) cell line; assay: Paracellular permeation across THCE monolayers on Transwell supports; type: cell-based
[3] = system: corneal epithelium; assay: Electron microscopy with ruthenium red of treated corneas (tight junction opening, morphology); settings: 30 minute preincubation samples
[4] = system: rabbit cornea; assay: Ex vivo transcorneal dye transport and corneal dye uptake in isolated rabbit cornea (perfusion chamber); settings: for residual internalized CF in cornea: washed, 200 μM peptide or 0.01% BAC, FIG. 6
[5] = 100 μM NC-1059, five-minute exposure

Sequence: KKKKAARVGLGITTVLVTTIGLGVRAA [NC-1059]
- fold increase in dye uptake, peptide treated vs untreated eye ([1]; 200 μM peptide 3 min, 3 min exposure to the dye, n=3): 2.2±0.46 fold
- fold increase in CF uptake, peptide treated vs untreated eye ([1]; 5 minute CF, added at 0 minutes after the rinse, n=3): 24.7±8.6 fold
- fold increase in CF uptake, peptide treated vs untreated eye ([1]; 5 minute CF, added at 30 minutes after the rinse, n=2): 14.4±5.6 fold
- fold increase in NaF uptake, peptide treated vs untreated eye ([1]; NaF, final column FIG. 7, n=2): 1.7±1.1 fold
- fold increase in CF uptake, peptide treated vs untreated eye ([1]; eyes of fourth column at the 30-minute time point, before second challenge): 2.7 fold
- fold increase in CF uptake, peptide treated vs untreated eye ([1]; same eyes challenged a second time with CF at 6 hours): 1.1 fold
- time after which junctions are beginning to close [2, 5]: 60 min
- time by which junctions appear completely resealed [2, 5]: ≤ 90 min
- size of dextran molecules able to cross cultured corneal epithelium after peptide treatment ([2]; preliminary dextran permeation experiments): at least 70 kDa
- depth of ruthenium red staining of multilayered corneal epithelium [3]: 3-4 layers
- induced transport rates for CF in paired corneas, BAC vs NC-1059 ([4]; 15 min preincubation, FIG. 5A): appear identical
- residual internalized CF in cornea ([4]; 15 min preincubation): 34 µg
- residual internalized CF in cornea ([4]; 30 min preincubation): 42 µg
- increase in CF dye transport, test cornea over control cornea (FIG. 3B) ([4]; CF co-incubated with peptide after 30 min preincubation with peptide, one experiment): ~7.4 fold
- increase over control of retained CF in cornea in the presence of the peptide ([4]; CF, internalized dye at end of assay, FIG. 3D): 234%
- NaF transport when peptide and dye are co-incubated ([4]; NaF 300 μM and peptide 200 μM co-incubated, precipitate forms): reduced transport
- NaF transcorneal transport versus dye alone ([4]; NaF after 30 minutes preincubation with peptide followed by washout, FIG. 3A): enhances delivery above that seen with the dye alone
- net increase of retained NaF in cornea in the presence of the peptide ([4]; NaF, internalized dye at end of assay, FIG. 3E): 27%
- time at which rate of CF transfer reaches a maximum ([4]; co-incubation of CF and peptide, FIG. 3C): 4.5 to 5.0 h
- time within which tight junctions have opened and resealed ([4]; in situ, in the absence of dye): ≤ 2 h
- CF transport after 2 h peptide incubation prior to dye ([4]; incubation time 2 h prior to addition of CF): no detectable increase
- average increase in amount of CF transferred in the presence of the peptide (FIG. 3C) ([4]; three separate experiments, co-incubation of CF and peptide, net transport test/control): about 5 fold
